Drawing on PubChem BioAssay AID493014 (National Center for Advancing Translational Sciences (NCATS), 2011), this text covers AC50 for 60 compounds.

This is one part of the list. Further columns of the screen follow, without active or inactive calls. Compounds called inactive in the main read-out are mostly missing here. The note in brackets gives the kind of curve behind each potency; many fits are weak.

This experiment can be described thus: qHTS Assay to Find Inhibitors of Chronic Active B-Cell Receptor Signaling. The following applies: ABC-DLBCL IkBa-CBG/CBR reporter, luminescence ratio (green luciferase fused to IkBa over red control in TMD8 lymphoma cells), 4 h. In outline:
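TMD8 ABC-DLBCL cells carrying doxycycline-inducible green luciferase fused to IkappaBalpha plus unfused red luciferase were exposed to compounds (up to 46 uM) for 4 hrs at 37C. Activity came from the overlap-corrected green/red luminescence ratio.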
In general terms: Quantitative high-throughput screening tests each substance at several concentrations.

[1] abbreviates: measured here: CBR red luminescence, cell number.
[2] abbreviates: measured here: IkBa-CBG green luminescence.

Regarding `COc1ccc(C2Nc3ccccc3C(=O)N2Cc2ccccc2)cc1COc1ccccn1` (stereo not given), the AC50 (as a rule, the midpoint of the concentration-response curve, whichever way the signal moves) under setting [1] is 17.8 µM [falling, single point].
`COC(=O)c1ccc(-c2ncc(-c3cccc4ccccc34)o2)cc1`: the AC50 under setting [1] is 0.0891 µM [falling, full curve, poor fit].
As for `O=C(NNC(=O)c1c(O)c2ccccc2[nH]c1=O)c1ccccc1`, the half-maximal activity concentration (AC50) under setting [1] was 1.41 µM [falling, full curve].
As for `COc1cc(C(=O)/C=C/Nc2ccc(NC(C)=O)cc2)cc(OC)c1OC`, the AC50 under setting [1] was 23.1 µM [rising, partial curve, poor fit] and the AC50 under setting [2] is 16.4 µM [falling, single point].
`CC(C)(C)c1ccc(C2C3=C(CCCC3=O)NC3=C2C(=O)c2ccccc23)cc1` (stereo not given): the AC50 under setting [1] is 35.5 µM [falling, partial curve, poor fit].
As for `Cc1oc(-c2nc3ccccc3n2C)cc1C(=O)c1ccccc1`, the AC50 under setting [1] was 29.1 µM [falling, single point].
For `C[C@]12c3[nH]c4ccccc4c3CCN1C(=O)C(CC(=O)NCC13CC4CC(CC(C4)C1)C3)C[C@@H]2C(=O)N1CCOCC1` (stereo not given in full), the AC50 under setting [1] was 32.6 µM [falling, single point].
Take `O=S(=O)(NC1CCN(S(=O)(=O)c2ccc3c(c2)OCCO3)C1)c1c(F)cccc1F` (stereo not given): the AC50 under setting [1] is 1.64 µM [rising, full curve, poor fit].
For `C(=N/Nc1nc(-c2ccccc2)cc(-c2ccccc2)n1)/c1cccnc1`, the concentration at half-maximal activity (AC50) under setting [1] is 2.06 µM [falling, partial curve].
Take `COC(=O)[C@H](Cc1ccc(O)cc1)NC(=O)Cn1cnc2c(OCc3ccccc3)ncnc21`: the AC50 under setting [1] was 16.4 µM [rising, partial curve, poor fit].
As for `CC(C)[C@H](NC(=O)c1ccccc1)C(=O)OCC(=O)NCCc1ccc(F)cc1`, the AC50 under setting [1] is 5.17 µM [rising, full curve, poor fit].
As to `CC(C)C[C@H](NC(=O)N1CCn2c1nc1ccccc12)C(=O)NCc1ccco1`, the half-maximal activity concentration (AC50) under setting [1] was 35.5 µM [falling, single point].
Take `Cc1nc2cc(-c3ccccc3)nn2c(C)c1CCC(=O)N1CCN(c2ccccc2)CC1`: the AC50 under setting [1] is 6.51 µM [falling, full curve, poor fit].
`CCOc1cccc(C(=O)Nc2cccc(-c3nnc(-c4ccccc4)o3)c2)c1`: the half-maximal activity concentration (AC50) under setting [1] was 0.891 µM [rising, full curve, poor fit].
On the same count and under the same terms, as for `O=C(CN1C(=O)C(=O)N(C2CCCC2)C1=O)Nc1ccc(OC(F)F)cc1`, the figure is 18.4 µM [rising, single point].
Turning to `CC[C@@]1(O)C(=O)OCc2c1cc1n(c2=O)Cc2cc3c(N)cccc3nc2-1`, the AC50 was 1.41 µM [falling, full curve] under setting [1] and 0.794 µM [rising, partial curve, poor fit] under setting [2].
On to `Cc1cccc(/C(N)=N/OC(=O)Cc2cccs2)c1`, for which the half-maximal activity concentration (AC50) under setting [1] was 1.26 µM [rising, partial curve, poor fit].
For `c1cc2c(cc1-c1[nH]ncc1CN1CC3C[C@@H]4CC1C[C@H](C3)C4)OCO2`, under setting [1], the concentration at half-maximal activity (AC50) was 25.1 µM [falling, single point].
For the compound `CC(=O)c1c(C)[nH]c(C(=O)Nc2cccc(S(=O)(=O)N(C)c3ccccc3)c2)c1C`, the half-maximal activity concentration (AC50) under setting [1] is 35.5 µM [falling, single point].
Take `O=C(NCc1ccco1)Nc1ccccc1Cl`: the AC50 under setting [1] was 6.51 µM [rising, single point].
With `CCN(CC)C(=O)CSc1nc2nc(C)cc(C)c2c(=O)[nH]1`, under setting [1], the half-maximal activity concentration (AC50) is 7.31 µM [falling, full curve, poor fit].
Consider `Cc1cccc(NC(=S)N=Nc2c(O)n(C)c3ccc(S(=O)(=O)N4CCOCC4)cc23)c1`, for which the AC50 was 11.6 µM [rising, partial curve] under setting [1] and 14.6 µM [falling, partial curve] under setting [2].
On to `Cc1ccc(S(=O)(=O)N/N=C2/CC(c3ccccc3)Oc3ccccc32)cc1[N+](=O)[O-]` (stereo not given), for which the half-maximal activity concentration (AC50) under setting [1] is 0.461 µM [rising, full curve, poor fit].
Take `Cc1cc(C(=O)COc2nncc3ccccc23)c(C)n1C`: under setting [1], the AC50 is 17.8 µM [rising, single point].
The same measure, in the same setting: as for `O=C1[C@@H]2[C@H](Cc3ccc(O)cc3)N[C@]3(C(=O)Nc4ccccc43)[C@@H]2C(=O)N1c1ccc(F)cc1`, the figure is 8.91 µM [falling, partial curve, poor fit]; as for `Oc1ccccc1Nc1ncnc2c1oc1ccccc12`, 20 µM [falling, partial curve, poor fit]; as for `O=C(O)CCCCCNC(=O)c1ccc(C(=O)NCCCCCC(=O)O)cc1`, 4.47 µM [rising, full curve, poor fit].
As for `COc1ccc(/C=N/Nc2nc(-c3ccc(C)cc3)c(C#N)c(=O)[nH]2)cc1`, the AC50 under setting [1] was 7.94 µM [falling, partial curve, poor fit].
Consider `Cc1c(NC(=O)CSc2nnc(-c3ccncc3)o2)c(=O)n(-c2ccccc2)n1C`, for which, under setting [1], the half-maximal activity concentration (AC50) was 10 µM [rising, partial curve, poor fit].
Take `CC(C)(C)c1ccc(-c2nnc(SCC(=O)Nc3sc4c(c3C#N)CCCC4)o2)cc1`: the concentration at half-maximal activity (AC50) under setting [1] was 5.8 µM [rising, full curve, poor fit].
Regarding `CCOC(=O)/C(C#N)=C/c1cn(CCOc2ccc(OC)cc2)c2ccccc12`, the AC50 under setting [1] was 0.103 µM [rising, full curve, poor fit].
Turning to `Cc1ccc(C(=O)N2CC(=O)Nc3ccc(F)cc3C2c2ccccc2)cc1` (stereo not given), the AC50 under setting [1] is 7.08 µM [falling, partial curve, poor fit].
Take `CCOc1ccc(Oc2ccc(C(F)(F)F)cc2N)cc1`: the half-maximal activity concentration (AC50) under setting [1] is 23.1 µM [rising, partial curve].
Regarding `Cc1cc(=O)n(-c2ccc(C(=O)O)cc2)[nH]1`, under setting [1], the AC50 is 3.98 µM [falling, partial curve].
For `COc1ccc(NC(=O)Nc2ccc(C(C)C)cc2)cc1`, the AC50 under setting [1] is 8.91 µM [falling, partial curve, poor fit].
`C/C(=N\NC(=O)c1ccc([N+](=O)[O-])cc1)c1c(O)cc(C)oc1=O`: under setting [1], the AC50 is 1.12 µM [rising, full curve, poor fit].
Same read-out and setting: next, `Cc1cc(C)c2cc(CN(Cc3ccco3)C(=O)NCc3ccccc3)c(=O)[nH]c2c1`: 22.4 µM [falling, single point]; `CN(C(=O)CSc1nnc(NC2CCCCC2)s1)C1CCS(=O)(=O)C1` (stereo not given): 29.1 µM [rising, single point]; `COc1ccc(C[C@@H]2CN3C(=NC[C@@H]3Cc3ccc(O)cc3)N2C[C@H](C)NC(=O)CCC2CCCCC2)cc1`: 10 µM [falling, partial curve, poor fit].
As for `O=C(O)c1cc(-c2ccccc2)nc2nc(N3CCCCC3)sc12`, under setting [1], the concentration at half-maximal activity (AC50) was 8.91 µM [rising, partial curve].
On to `COc1ccc(C(=O)c2cc([N+](=O)[O-])ccc2N2CCOCC2)cc1`, for which the AC50 under setting [1] is 9.2 µM [rising, partial curve] and the AC50 under setting [2] is 5.8 µM [falling, partial curve].
For the compound `OCCCNc1nnc(-c2ccccc2)c2ccccc12`, the AC50 under setting [1] was 3.98 µM [rising, partial curve, poor fit].
With `O=C(NC1CC1)c1ccc2c(c1)N(Cc1ccc(Cl)cc1)CCS2`, the AC50 under setting [1] is 35.5 µM [falling, single point].
Same read-out and setting: next, `O=c1cc(-c2ccccc2)nc2nc(SCc3ccccc3)[nH]n12`: 5.17 µM [falling, full curve].
Still for that read-out and setting: next, `CCOc1ccc(NC(C)C(=O)N/N=C/c2cccs2)cc1` (stereo not given): 29.1 µM [rising, single point].
As to `Cc1ccccc1-n1c(SCC(=O)c2c(N)n(C)c(=O)n(C)c2=O)nc2sc3c(c2c1=O)CCCC3`, the AC50 under setting [1] was 0.326 µM [rising, full curve, poor fit].
The same measure, in the same setting: next, `O=C(O)CSc1nnc(COc2cccc3ccccc23)o1`: 35.5 µM [falling, single point].
On to `CCOc1ccc(NC(=O)c2ccccc2SC)cc1`, for which the AC50 under setting [1] is 3.16 µM [falling, full curve].
In the case of `COc1cccc(OC)c1C(=O)Nc1ccc2c(c1)n(C)c(=O)n2C`, under setting [1], the AC50 was 14.1 µM [rising, partial curve, poor fit].
Take `COc1ccc(OC)c(NS(=O)(=O)c2ccc(N3CCCC3=O)cc2)c1`: the AC50 is 11.2 µM [rising, partial curve, poor fit] under setting [1] and 11.2 µM [falling, partial curve] under setting [2].
As for `Nc1ccccc1NC1CCCCC1`, the AC50 under setting [1] is 12.6 µM [falling, partial curve, poor fit].
As for `CC(CCc1ccccc1)OS(N)(=O)=O` (stereo not given), under setting [1], the AC50 is 8.91 µM [rising, single point].
As to `O=C(CSc1n[nH]c(-c2ccncc2)n1)c1ccccc1`, the AC50 under setting [1] was 16.4 µM [falling, single point].
As for `CCOC(=O)c1c(NC(=O)CCS(=O)(=O)c2ccccc2)sc2c1CCN(C(C)C)C2`, under setting [1], the AC50 was 35.5 µM [falling, single point].
On to `CCN1C(=O)/C(=C2/Sc3ccccc3N2CC)S/C1=N\c1ncn[nH]1`, for which, under setting [1], the AC50 is 12.6 µM [falling, partial curve, poor fit].
Consider `Cc1cccc(-n2c(O)c(C=Nc3ccc(O)cc3)c3ccccc3c2=O)n1`, for which the AC50 under setting [1] was 18.4 µM [rising, partial curve].
Take `COc1ccc(COc2cccc3ccc(C)nc23)cc1F`: the concentration at half-maximal activity (AC50) under setting [1] is 3.16 µM [rising, partial curve, poor fit].
Still for that read-out and setting: next, `CC1CCN(c2ncnc3c2cnn3Cc2ccc(Cl)cc2)CC1`: 2.51 µM [rising, partial curve, poor fit]; `COc1cc(/C=C2\SC(=S)NC2=O)ccc1OS(=O)(=O)c1ccccc1`: 32.6 µM [falling, single point].
For `O=C(CN1CCN(S(=O)(=O)c2ccc(F)cc2)CC1)Nc1ccnn1C1CCCC1`, under setting [1], the AC50 was 18.4 µM [falling, single point].
